PubChem BioAssay AID1224828 – NIAID, 2016

Aim: 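Find genes required for NF-kappaB p65 moving into the nucleus after LPS in mouse macrophages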 (primary screen)
System: mouse RAW264.7 G9 macrophage reporter cells (GFP-p65, Tnf promoter-mCherry)
Reagent: siRNA pool against mouse genes, 100 nM
Time to read-out: 2 days siRNA transfection, then 40 min LPS before fixation
Challenge: LPS (Salmonella minnesota R595) at 10 ng/ml
Detection: 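Imaged p65 nuclear translocation ratio, normalised to the plate median, converted to robust z-scores and averaged across two replicates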
Scale: p65 translocation robust z-score: higher = more nuclear NF-kappaB p65 after LPS than the plate median; nuclear/cytoplasmic p65 ratio: higher = more nuclear NF-kappaB p65
Call rule: 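Active if robust z is above 3.3 (negative regulators) or below -1.56, the Tlr4 control median (positive regulators); activity score 50 or more; control wells not called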
Meaning of the calls: active = hit (p65 shift raised or lowered); inactive = no clear change
Shown is a random part of about 17,000 reagents tested. Of all reagents, 762 (4.5%) were called active. 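Active calls include both raised and lowered p65 entry, mostly lowered; wells with fewer than 50 cells lack a z-score.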 Raw values vary from plate to plate and are shown uncorrected. Reagents against one gene are numbered here.

| gene knocked down | pool no. | p65 translocation robust z-score | nuclear/cytoplasmic p65 ratio, rep 1 | nuclear/cytoplasmic p65 ratio, rep 2 | low cell count flag | call |
| --- | --- | --- | --- | --- | --- | --- |
| Cyp4a31 | 1 | -2.19 | 1.41 | 1.2 | enough cells to score | active |
| Rsrc1 | 1 | – | 1.22 | 1.4 | fewer than 50 cells per well; well left out of scoring | inactive |
| Or4k51 | 1 | -0.21 | 1.57 | 1.37 | enough cells to score | inactive |
| F830045P16Rik | 1 | 0.31 | 1.67 | 1.48 | enough cells to score | inactive |
| Arcn1 | 1 | – | 0 | 1.08 | fewer than 50 cells per well; well left out of scoring | inactive |
| Tmem14c | 1 | -0.17 | 1.32 | 1.2 | enough cells to score | inactive |
| Vnn1 | 1 | 0.87 | 1.55 | 1.7 | enough cells to score | inactive |
| Celf2 | 1 | 1.65 | 1.73 | 1.57 | enough cells to score | inactive |
| Celf2 | 2 | -0.25 | 1.5 | 1.54 | enough cells to score | inactive |
| Mfap3l | 1 | – | 1.19 | 1.33 | fewer than 50 cells per well; well left out of scoring | inactive |
| Cd28 | 1 | -0.07 | 1.37 | 1.45 | enough cells to score | inactive |
| Fmo1 | 1 | 0.3 | 1.46 | 1.42 | enough cells to score | inactive |
| Prmt1 | 1 | -0.55 | 1.35 | 1.31 | enough cells to score | inactive |
| Rps17 | 1 | – | 1.77 | 1.18 | fewer than 50 cells per well; well left out of scoring | inactive |
| Ppp2r2d | 1 | – | 1.48 | 1.08 | fewer than 50 cells per well; well left out of scoring | inactive |
| Map3k10 | 1 | 1.16 | 1.6 | 1.52 | enough cells to score | inactive |
| Strip2 | 1 | 0.28 | 1.6 | 1.6 | enough cells to score | inactive |
| Cyp2d34 | 1 | 1.93 | 1.98 | 1.86 | enough cells to score | inactive |
| Mcpt8 | 1 | 1.87 | 2.07 | 1.77 | enough cells to score | inactive |
| Micall2 | 1 | 0.89 | 1.55 | 1.6 | enough cells to score | inactive |
| Tesc | 1 | 0.83 | 1.48 | 1.27 | enough cells to score | inactive |
| Camta2 | 1 | -1.19 | 1.4 | 1.47 | enough cells to score | inactive |
| Bbln | 1 | -0.66 | 1.31 | 1.49 | enough cells to score | inactive |
| Fhod3 | 1 | 0.98 | 1.72 | 1.64 | enough cells to score | inactive |
| Cacng7 | 1 | 1.1 | 1.81 | 1.9 | enough cells to score | inactive |
| Mybl1 | 1 | 0.51 | 1.48 | 1.43 | enough cells to score | inactive |
| Cmtm2a | 1 | 0.52 | 1.72 | 1.81 | enough cells to score | inactive |
| Zc3h11a | 1 | – | 1.13 | 1.13 | fewer than 50 cells per well; well left out of scoring | inactive |
| Samd8 | 1 | – | 1.41 | 1.65 | fewer than 50 cells per well; well left out of scoring | inactive |
| Setd1b | 1 | – | 1.64 | 2.09 | fewer than 50 cells per well; well left out of scoring | inactive |
| Fgf4 | 1 | -1.45 | 1.15 | 1.21 | enough cells to score | inactive |
| 4833420G17Rik | 1 | – | 1.47 | 1.24 | fewer than 50 cells per well; well left out of scoring | inactive |
| Rdh9 | 1 | -1.49 | 1.22 | 1.08 | enough cells to score | inactive |
| Apob | 1 | 1.16 | 1.82 | 1.76 | enough cells to score | inactive |
| Zfp790 | 1 | 1.56 | 1.51 | 1.73 | enough cells to score | inactive |
| Tas2r134 | 1 | -0.03 | 1.36 | 1.11 | enough cells to score | inactive |
| Xlr3c | 1 | 0.51 | 1.43 | 1.35 | enough cells to score | inactive |
| Ccdc97 | 1 | – | 1.4 | 1.22 | fewer than 50 cells per well; well left out of scoring | inactive |
| Shcbp1 | 1 | 0.14 | 1.4 | 1.29 | enough cells to score | inactive |
| Gpx4 | 1 | – | 1.48 | 1.4 | fewer than 50 cells per well; well left out of scoring | inactive |
| Edar | 1 | -0.32 | 1.4 | 1.35 | enough cells to score | inactive |
| Tpbpa | 1 | 0.46 | 1.38 | 1.28 | enough cells to score | inactive |
| Mylk3 | 1 | -0.32 | 1.71 | 1.28 | enough cells to score | inactive |
| Krt18 | 1 | -1.16 | 1.3 | 1.25 | enough cells to score | inactive |
| Dpysl5 | 1 | -0.36 | 1.41 | 1.3 | enough cells to score | inactive |
| Ceacam19 | 1 | -0.66 | 1.4 | 1.38 | enough cells to score | inactive |
| Tor1aip1 | 1 | 1.87 | 1.97 | 1.85 | enough cells to score | inactive |
| Prima1 | 1 | -0.7 | 1.27 | 1.15 | enough cells to score | inactive |
| Tacc3 | 1 | -0.35 | 1.49 | 1.48 | enough cells to score | inactive |
| Pde8a | 1 | -0.48 | 1.4 | 1.29 | enough cells to score | inactive |
| Zdhhc5 | 1 | – | 1.29 | 1.14 | fewer than 50 cells per well; well left out of scoring | inactive |
| Pelo | 1 | – | 1.11 | 1.04 | fewer than 50 cells per well; well left out of scoring | inactive |
| B4galt3 | 1 | 0.13 | 1.59 | 1.87 | enough cells to score | inactive |
| Bmpr1b | 1 | -0.92 | 1.59 | 1.23 | enough cells to score | inactive |
| Trmu | 1 | 2.62 | 1.84 | 1.43 | enough cells to score | inactive |
| Lsm12 | 1 | -1.02 | 1.19 | 1.41 | enough cells to score | inactive |
| Zfp764l1 | 1 | – | 1.04 | 1.22 | fewer than 50 cells per well; well left out of scoring | inactive |
| Slc23a3 | 1 | – | 1.29 | 1.21 | fewer than 50 cells per well; well left out of scoring | inactive |
| Acaca | 1 | 0.9 | 1.8 | 1.7 | enough cells to score | inactive |

An excerpt from above, limited to “nuclear/cytoplasmic p65 ratio, rep 1”:
Cyp4a31	1.41
Rsrc1	1.22
Or4k51	1.57
F830045P16Rik	1.67
Arcn1	0
